Test results taken from article PMC4420617.
These are yes or no findings as the source states them, for the method shown. Binding seen in cells or lysates may run through a third protein. Binding calls can cover weak binding; strength is not graded here.

The chains behind the UniProt entries cited, without tags or fusion partners. Where a name states a change or a piece, a line headed by the entry shows the natural chain unless it says otherwise.
UniProt Q96ST3: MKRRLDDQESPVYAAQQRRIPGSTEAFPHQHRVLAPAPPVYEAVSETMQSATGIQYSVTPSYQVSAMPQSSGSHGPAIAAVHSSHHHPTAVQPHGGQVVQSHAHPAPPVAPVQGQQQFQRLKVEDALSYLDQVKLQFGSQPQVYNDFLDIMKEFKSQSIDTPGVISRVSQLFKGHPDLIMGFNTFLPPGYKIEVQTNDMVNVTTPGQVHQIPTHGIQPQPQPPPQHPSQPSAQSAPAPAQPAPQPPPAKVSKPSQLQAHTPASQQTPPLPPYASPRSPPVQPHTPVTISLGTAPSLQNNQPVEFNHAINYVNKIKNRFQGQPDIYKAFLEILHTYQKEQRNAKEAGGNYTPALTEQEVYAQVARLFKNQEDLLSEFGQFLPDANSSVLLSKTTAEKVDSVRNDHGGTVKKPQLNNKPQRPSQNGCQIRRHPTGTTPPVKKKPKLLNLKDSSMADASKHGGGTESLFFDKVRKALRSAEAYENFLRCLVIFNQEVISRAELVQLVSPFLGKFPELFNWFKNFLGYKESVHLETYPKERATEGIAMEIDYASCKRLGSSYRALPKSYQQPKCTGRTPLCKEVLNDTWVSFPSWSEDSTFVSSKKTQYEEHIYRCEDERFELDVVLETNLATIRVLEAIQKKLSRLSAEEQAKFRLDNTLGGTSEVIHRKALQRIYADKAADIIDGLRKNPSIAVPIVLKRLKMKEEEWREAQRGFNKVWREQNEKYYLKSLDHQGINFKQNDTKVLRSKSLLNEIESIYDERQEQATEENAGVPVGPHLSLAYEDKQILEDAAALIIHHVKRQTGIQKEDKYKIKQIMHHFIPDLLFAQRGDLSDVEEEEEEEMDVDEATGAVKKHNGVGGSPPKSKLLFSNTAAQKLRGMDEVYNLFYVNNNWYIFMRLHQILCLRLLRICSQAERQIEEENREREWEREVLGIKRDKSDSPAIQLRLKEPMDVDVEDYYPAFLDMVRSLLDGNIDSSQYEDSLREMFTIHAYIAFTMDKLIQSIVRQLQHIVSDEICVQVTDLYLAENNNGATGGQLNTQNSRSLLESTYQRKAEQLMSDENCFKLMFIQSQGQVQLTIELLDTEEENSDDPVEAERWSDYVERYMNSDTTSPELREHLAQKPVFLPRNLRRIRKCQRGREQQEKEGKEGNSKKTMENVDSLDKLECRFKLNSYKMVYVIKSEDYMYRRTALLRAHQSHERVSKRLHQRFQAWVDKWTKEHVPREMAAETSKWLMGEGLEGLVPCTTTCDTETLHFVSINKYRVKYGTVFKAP
UniProt Q13547: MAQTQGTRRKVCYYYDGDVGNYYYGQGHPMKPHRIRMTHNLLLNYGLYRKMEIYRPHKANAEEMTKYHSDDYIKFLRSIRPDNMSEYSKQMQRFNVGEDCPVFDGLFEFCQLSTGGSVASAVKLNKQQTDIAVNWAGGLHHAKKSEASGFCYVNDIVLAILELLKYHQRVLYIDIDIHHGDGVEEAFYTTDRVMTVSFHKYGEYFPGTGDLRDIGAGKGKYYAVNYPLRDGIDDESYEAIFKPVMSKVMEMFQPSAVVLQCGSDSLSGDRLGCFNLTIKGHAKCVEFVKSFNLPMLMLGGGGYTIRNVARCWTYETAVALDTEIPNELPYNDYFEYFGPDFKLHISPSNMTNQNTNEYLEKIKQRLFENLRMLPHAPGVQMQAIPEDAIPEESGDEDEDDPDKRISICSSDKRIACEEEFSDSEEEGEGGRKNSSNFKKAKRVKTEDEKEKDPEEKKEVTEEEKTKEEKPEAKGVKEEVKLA

Tests used:
[1] = target: Sin3A HDAC-interaction domain (HID), flag-tagged (UniProt Q96ST3); assay: co-IP; binary co-expression of HDAC1 and Sin3A without SDS3 in HEK 293F, purified by these protocols; details not told; limited yields
[2] = target: Sin3A HDAC-interaction domain (HID), flag-tagged (UniProt Q96ST3); assay: co-IP; flag-tagged Sin3A-HID co-expressed with untagged HDAC1 and SDS3 in HEK 293F; whole cell extract on anti-flag agarose resin, 30-120 min at 4 °C; 100 mM potassium acetate, 50 mM Tris pH 7.5, 5% glycerol, 0.3% Triton X-100; washes up to 300 mM potassium acetate; eluted by TEV cleavage; SDS-PAGE, Coomassie stain

| binding [1] | binding [2] | Molecule |
| --- | --- | --- |
| binds | binds | Histone Deacetylase 1 (from UniProt Q13547 1-482) (enzyme) |
|  | binds | Suppressor of Defective Silencing 3 (protein, UniProt Q9H7L9 1-328) MSAAGLLAPAPAQAGAPPAPEYYPEEDEELESAEDDERSCRGRESDEDTEDASETDLAKHDEEDYVEMKEQMYQDKLASLKRQLQQLQEGTLQEYQKRMKKLDQQYKERIRNAELFLQLETEQVERNYIKEKKAAVKEFEDKKVELKENLIAELEEKKKMIENEKLTMELTGDSMEVKPIMTRKLRRRPNDPVPIPDKRRKPAPAQLNYLLTDEQIMEDLRTLNKLKSPKRPASPSSPEHLPATPAESPAQRFEARIEDGKLYYDKRWYHKSQAIYLESKDNQKLSCVISSVGANEIWVRKTSDSTKMRIYLGQLQRGLFVIRRRSAA |
